No constants are given. Whether binding was seen depends on the method and setting. Some entries that bind do so weakly or less than the wild type.
Columns and labels:
[1] = biological target: TdfH (Neisseria meningitidis) (UniProt Q7DDB6); test: whole bacteria over-expressing TdfH incubated with calprotectin, washed, lysed; Western blot with anti-calprotectin; no metal added
[2] = biological target: TdfH (Neisseria meningitidis) (UniProt Q7DDB6); test: whole bacteria over-expressing TdfH incubated with calprotectin, with zinc or manganese added to the binding step; Western blot with anti-calprotectin

Sequences of proteins named here, by UniProt entry; tags and fusion partners are left off. A change or cut given only in a name is not applied to a line headed by its entry.
UniProt Q7DDB6: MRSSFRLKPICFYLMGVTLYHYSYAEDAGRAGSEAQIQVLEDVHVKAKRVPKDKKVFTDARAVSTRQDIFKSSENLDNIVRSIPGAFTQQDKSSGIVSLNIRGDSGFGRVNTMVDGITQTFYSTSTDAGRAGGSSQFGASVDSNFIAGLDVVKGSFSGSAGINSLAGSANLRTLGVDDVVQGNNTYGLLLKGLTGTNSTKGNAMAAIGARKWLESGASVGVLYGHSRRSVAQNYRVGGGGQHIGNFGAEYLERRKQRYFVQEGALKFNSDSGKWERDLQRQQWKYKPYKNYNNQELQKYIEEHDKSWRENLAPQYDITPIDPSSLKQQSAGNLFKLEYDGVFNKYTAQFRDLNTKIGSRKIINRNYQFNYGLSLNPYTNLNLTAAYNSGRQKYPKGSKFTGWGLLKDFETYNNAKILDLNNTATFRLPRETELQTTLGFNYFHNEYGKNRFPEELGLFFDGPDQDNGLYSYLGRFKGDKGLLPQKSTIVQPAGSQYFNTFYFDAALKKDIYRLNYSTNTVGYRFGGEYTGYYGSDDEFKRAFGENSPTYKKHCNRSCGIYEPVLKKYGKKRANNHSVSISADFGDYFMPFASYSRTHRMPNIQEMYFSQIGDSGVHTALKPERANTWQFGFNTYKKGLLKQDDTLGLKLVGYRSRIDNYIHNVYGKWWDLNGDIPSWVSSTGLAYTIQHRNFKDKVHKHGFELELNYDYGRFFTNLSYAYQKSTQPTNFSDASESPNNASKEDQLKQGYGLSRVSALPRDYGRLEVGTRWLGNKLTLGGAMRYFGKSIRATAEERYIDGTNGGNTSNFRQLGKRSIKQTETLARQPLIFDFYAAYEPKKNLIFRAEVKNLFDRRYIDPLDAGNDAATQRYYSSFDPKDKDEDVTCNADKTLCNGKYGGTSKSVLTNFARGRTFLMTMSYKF

B1: calprotectin (ligand)
chain 1: MLTELEKALNSIIDVYHKYSLIKGNFHAVYRDDLKKLLETECPQYIRKKGADVWFKELDINTDGAVNFQEFLILVIKMGVAAHKKSHEESHKE
chain 2: MTCKMSQLERNIETIINTFHQYSVKLGHPDTLNQGEFKELVRKDLQNFLKKENKNEKVIEHIMEDLDTNADKQLSFEEFIMLMARLTWASHEKMHEGDEGPGHHHKPGLGEGTP
In the case of B1, the binding [1] is reported as “binds” and the binding [2] is reported as “binds”.
